Values of other authors in patent US20100190706A1, “Stable Non-Aqueous Pharmaceutical Compositions” (NOVO NORDISK A/S, priority 2007, published 2010).
For at least one compound, name, drawing or mass did not settle the structure.

Details: 293.2 Kelvin; cited from earlier work

For `OCC(O)CO` [Propanetriol [Glycerol], Propanetriol], the “Dielectricity constant, ε*” value is listed as 46.53.
